# Results: US20240058288A1, “DRUG COCKTAIL FOR TREATMENT OF PARKINSON'S DISEASE, LEWY BODY DISEASE AND MULTIPLE SYSTEM ATROPHY” (ALETA NEUROSCIENCE, LLC, priority 2021, published 2024)
# System: human dopaminergic neurons (iCell DopaNeurons)
# Assay: MPP+-induced neurotoxicity: neurite outgrowth (neurite length, branch points) of iCell DopaNeurons, Incucyte
# Type: cell-based
# Description: We conducted an in vitro study of the drugs in Table 1 to evaluate the neuroprotective effects of 44 conditions of treatment (Table 2, experiments 1-41; 51-53) against MPP+-induced neurodegeneration toxicity on human dopaminergic neurons (iCell® DopaNeurons: iPS cell-derived human midbrain floorplate dopaminergic neurons). Further combinations (Table 2, experiments 42-50 and Table 3) are also disclosed.
# iCell DOPA neurons are neural floor plate-derived midbrain dopaminergic neurons generated from human induced pluripotent stem cells (iPSCs). Dopaminergic neurons, specifically those located in the floor plate-derived midbrain are implicated in neurological disorders such as Parkinson's disease, MSA and DLBD among others. Thus iCell DopaNeurons provide a highly relevant in vitro model to investigate these types of pathologies (42, 43). The iCellDopa neurons were supplied from FUJIFILM Cellular Dynamics.
# Three different measurements were made in the experiments. 1. Neurite length in mm is a measure of increase in dendrite length of neurons. […] 2. neurite branching is measure of dendrite branching. […] 3. Cytolysis of the cells is a measure of cell death. […] Experimental conditions were measured relative to the results of healthy cells in the studies.
# Procedure. iCell DOPA neurons were thawed and cultured following the provider's instructions in Brainphys medium+provided supplements+1% N2 supplement (Stemcell Technologies)+penicillin/streptomycin+Laminin. They were plated at 20000 cells per well of a 384 well plate (pre-coated with poly-D-lysine and Laminin) in 70 μL of growth medium. Cells were incubated at 37° C./5% CO2 in a humidified cell culture incubator. Half of the culture medium was changed twice a week.
# MPP+-induced neurotoxicity: 24 hours after neuronal plating, half of the medium was removed and the test compounds were applied with MPP+ treatment, both concentrated at 4×, were added to the wells. For each condition, six aliquots were added, corresponding to columns A-F in Table 2. Except for the NT/NT row, in each row, either the compound indicated dissolved in its vehicle noted in Table 1 was added, or only a vehicle was added as indicated. Column F is an indicator of whether MPP+ was added. […]
# For the evaluation of conditions 1-28, Neurite outgrowth was followed for subsequent 48 hours using an Incucyte Zoom platform with one phase contrast image every 4 hours, using a 20× objective. After 48 hours, the medium containing test compounds and MPP+ was removed and replaced by fresh medium containing a fluorescent cytolysis marker (red fluorescence) and a live cell marker (green fluorescence). […]
# Assay endpoints and data analysis. Phase contrast images were analyzed at each time point to determine the neurite length and number of branch points per mm^2. […]
Compound,"Neurite length, plate 1: Stat vs Control/MPP+ (MPP+ 100 μM, Table 6.1)","Neurite branching, Plate 1: Stat vs Control/MPP+ (MPP+ 100 μM, Table 7.1)","Neurite length, plate 1: Stat vs Control/MPP+",Number of branch points: Stat vs Control/MPP+
"C[C@H](CCC(=O)NCCS(=O)(=O)O)[C@H]1CC[C@H]2[C@@H]3[C@@H](O)C[C@@H]4C[C@H](O)CC[C@]4(C)[C@H]3CC[C@]12C [TUDCA, tauroursodeoxycholic acid]",*** (*** = p < 0.001),** (** = p < 0.01),,
Sodium Phenylbutyrate [PBA],,,* (key: NS = Not Significant; * = p < 0.05; ** = p < 0.01; *** = p < 0.001),* (key: NS = Not Significant; * = p < 0.05; ** = p < 0.01; *** = p < 0.001)

# Where two headings read alike, the source gives them in different places.
